# This is one part of the list. Repeats are few or missing, and single values can be far off.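 Cells were imaged in 1,536-well plates, and nuclei stained with an antibody against cleaved PARP were counted against all DNA-stained nuclei to give the apoptosis fraction. Screening doses were chosen to leave most cells alive, and resting and induced cleaved-PARP levels differ strongly between cell lines.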
# Tested on: RVH-421
# Experiment: cleaved PARP positive nuclei fraction relative to DMSO control; melanoma cells; higher = more apoptosis
# Details: library dose: low library concentration; 72 h
row,Structure (SMILES),cleaved PARP positive nuclei fraction [%]
1,"NC(=O)c1ccc(N(C(N)=O)c2c(F)cccc2F)nc1-c1ccc(F)cc1F + Nc1nc(F)nc2c1ncn2[C@@H]1O[C@H](CO)[C@@H](O)[C@@H]1O [fludarabine] (first compound 0.4 µM, partner dose 0.2 µM)",85.3
2,"Cn1sc(=O)n(Cc2ccccc2)c1=O + CNC(=O)c1cc(Oc2ccc(NC(=O)Nc3ccc(Cl)c(C(F)(F)F)c3)cc2)ccn1 [sorafenib] (first compound 0.4 µM, partner dose 0.4 µM)",99.6
3,"COc1ccc(C2=N[C@@H](c3ccc(Cl)cc3)[C@@H](c3ccc(Cl)cc3)N2C(=O)N2CCNC(=O)C2)c(OC(C)C)c1 [Nutlin-3] + CN(c1ncccc1CNc1nc(Nc2ccc3c(c2)CC(=O)N3)ncc1C(F)(F)F)S(C)(=O)=O [PF562271] (first compound 0.1 µM, partner dose 0.08 µM)",102
4,"CN(c1ncccc1CNc1nc(Nc2ccc3c(c2)CC(=O)N3)ncc1C(F)(F)F)S(C)(=O)=O + Cn1c(=O)n(-c2ccc(C(C)(C)C#N)cc2)c2c3cc(-c4cnc5ccccc5c4)ccc3ncc21 [NVP-BEZ235] (first compound 0.08 µM, partner dose 0.004 µM)",70.5
5,"Cn1sc(=O)n(Cc2ccccc2)c1=O + CCN(CC)CCNC(=O)c1c(C)[nH]c(/C=C2\C(=O)Nc3ccc(F)cc32)c1C [sunitinib] (first compound 0.4 µM, partner dose 0.4 µM)",109
6,"CC1(C)CCC(c2ccc(Cl)cc2)=C(CN2CCN(c3ccc(C(=O)NS(=O)(=O)c4ccc(N[C@H](CCN5CCOCC5)CSc5ccccc5)c(S(=O)(=O)C(F)(F)F)c4)cc3)CC2)C1 + Cc1nc(Nc2ncc(C(=O)Nc3c(C)cccc3Cl)s2)cc(N2CCN(CCO)CC2)n1 [dasatanib] (first compound 0.4 µM, partner dose 0.004 µM)",284
7,"Cn1cnc2c(F)c(Nc3ccc(Br)cc3Cl)c(C(=O)NOCCO)cc21 [selumetinib] + Cn1c(Nc2ccc(C(F)(F)F)cc2)nc2cc(Oc3ccnc(-c4ncc(C(F)(F)F)[nH]4)c3)ccc21 [CHIR265] (first compound 0.015 µM, partner dose 0.08 µM)",209
8,"C[C@@H](N)c1ccc(C(=O)Nc2ccnc3[nH]ccc23)cc1 + Nc1ncn([C@H]2C[C@H](O)[C@@H](CO)O2)c(=O)n1 [decitabine] (first compound 0.4 µM, partner dose 0.1 µM)",202
9,"CC1(C)CCC(c2ccc(Cl)cc2)=C(CN2CCN(c3ccc(C(=O)NS(=O)(=O)c4ccc(N[C@H](CCN5CCOCC5)CSc5ccccc5)c(S(=O)(=O)C(F)(F)F)c4)cc3)CC2)C1 + COCC[n+]1c2c(n(Cc3cnccn3)c1C)C(=O)c1ccccc1C2=O [YM155] (first compound 0.4 µM, partner dose 0.0004 µM)",101
10,"Cn1sc(=O)n(Cc2ccccc2)c1=O + CS(=O)(=O)CCNCc1ccc(-c2ccc3ncnc(Nc4ccc(OCc5cccc(F)c5)c(Cl)c4)c3c2)o1 [lapatinib] (first compound 0.4 µM, partner dose 0.8 µM)",94.4
11,"Cn1cnc2c(F)c(Nc3ccc(Br)cc3Cl)c(C(=O)NOCCO)cc21 [selumetinib] + Nc1nc(F)nc2c1ncn2[C@@H]1O[C@H](CO)[C@@H](O)[C@@H]1O [fludarabine] (first compound 0.015 µM, partner dose 0.2 µM)",142
12,"CS(=O)(=O)c1ccc(C(=O)Nc2ccc(Cl)c(-c3ccccn3)c2)c(Cl)c1 [vismodegib] + CC(C)C[C@H](NC(=O)[C@H](Cc1ccccc1)NC(=O)c1cnccn1)B(O)O [Bortezomib] (first compound 1 µM, partner dose 0.001 µM)",203
13,"CC1(C)CCC(c2ccc(Cl)cc2)=C(CN2CCN(c3ccc(C(=O)NS(=O)(=O)c4ccc(N[C@H](CCN5CCOCC5)CSc5ccccc5)c(S(=O)(=O)C(F)(F)F)c4)cc3)CC2)C1 + C=C(c1ccc(C(=O)O)cc1)c1cc2c(cc1C)C(C)(C)CCC2(C)C [Bexarotene] (first compound 0.4 µM, partner dose 2 µM)",112
14,"CS(=O)(=O)c1ccc(C(=O)Nc2ccc(Cl)c(-c3ccccn3)c2)c(Cl)c1 [vismodegib] + CC(=O)c1c(C)c2cnc(Nc3ccc(N4CCNCC4)cn3)nc2n(C2CCCC2)c1=O [palbociclib] (first compound 1 µM, partner dose 0.04 µM)",70.1
